Experimental data: publication PMC4750278
These are yes or no findings as the source states them, for the method shown. Some entries that bind do so weakly or less than the wild type. For part of these data: Tags and fused reporters may be left off the sequences shown. Values belong to the binder of their own block, whether it stands above or below them.

Experiments:
[1] = molecular target: T1, recombinant UVR8 (UV … LOCUS 8) (Arabidopsis), Q9FN03; assay: SDS-PAGE of non-boiled samples; purified recombinant UVR8 without UV-B treatment, with or without reconstituted nucleosomes; samples boiled or non-boiled; Coomassie Blue; both purified; conditions: remark: other sources report otherwise
T1 chain: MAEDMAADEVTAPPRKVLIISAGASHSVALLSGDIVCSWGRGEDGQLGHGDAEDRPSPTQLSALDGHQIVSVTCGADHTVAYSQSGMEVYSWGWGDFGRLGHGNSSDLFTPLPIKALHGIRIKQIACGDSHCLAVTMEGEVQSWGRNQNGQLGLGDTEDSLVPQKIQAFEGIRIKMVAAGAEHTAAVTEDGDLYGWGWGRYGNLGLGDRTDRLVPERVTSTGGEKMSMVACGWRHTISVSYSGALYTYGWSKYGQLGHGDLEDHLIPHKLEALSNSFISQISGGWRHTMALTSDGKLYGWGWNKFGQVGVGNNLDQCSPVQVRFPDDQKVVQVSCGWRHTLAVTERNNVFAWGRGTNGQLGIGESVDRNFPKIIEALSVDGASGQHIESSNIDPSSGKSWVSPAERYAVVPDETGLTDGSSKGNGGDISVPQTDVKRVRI

[2] = molecular target: recombinant UVR8 (UV … LOCUS 8) (Arabidopsis) (UniProt Q9FN03); assay: SDS-PAGE of non-boiled samples; purified recombinant UVR8 after UV-B treatment, with or without reconstituted nucleosomes; samples boiled or non-boiled; Coomassie Blue; both purified
[3] = molecular target: T2, HY5 (ELONGATED HYPOCOTYL 5) fused to the LexA DNA binding domain (Arabidopsis) (UniProt O24646); assay: two-hybrid; L40 yeast cells; HY5 fused to the LexA DNA binding domain
T2 sequence: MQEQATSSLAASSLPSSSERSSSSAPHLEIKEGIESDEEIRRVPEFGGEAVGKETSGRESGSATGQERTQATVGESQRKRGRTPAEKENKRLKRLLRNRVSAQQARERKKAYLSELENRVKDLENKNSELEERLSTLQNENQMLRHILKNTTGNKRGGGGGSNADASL

binding [1]: binds
B1: recombinant UVR8 (UV … LOCUS 8), Q9FN03 1-440 (protein)
chain: T1 chain

B2: recombinant UVR8 (UV … LOCUS 8) (protein, UniProt Q9FN03 1-440)
chain: T1 chain
binding [2]: no binding (condition: after UV-B treatment)

binding [3]: no binding
B3: UVR8 in the yeast two-hybrid assay (protein, UniProt Q9FN03 1-440)
chain: T1 chain
